Laboratory results taken from the supplement of paper PMC4749390.
Where a name gives a salt, the structure may show the parent alone. This is one part of the list. This data set is noisy: repeats of one test often differ as much as different tests do.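 JEG3 cells stably carry tetracycline-induced wild-type human LRH-1, a heavily sumoylated nuclear receptor. APOC3 and MUC1 are SUMO-sensitive transcripts, raised by SUMO-less LRH-1 or UBC9 knockdown, measured by RT-qPCR against TBP and DMSO controls. A robust Z-score above +2 or below -2 marked a primary hit before toxicity and TBP filtering.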

Test system: JEG3 expressing hLRH-1
Assay: APOC3 transcript change (ddCt vs TBP and DMSO), Z-score over library; higher = higher APOC3 expression
Conditions: 10 µM; time (hr): 24

Compound | APOC3 transcript change (Z-score)
CCCc1nn(C)c2c(O)nc(-c3cc(S(=O)(=O)N4CCN(C)CC4)ccc3OCC)nc12 [sildenafil] | 1.02
Oc1c(I)cc(I)c2cccnc12 [iodoquinol] | 0.4
Cc1cccc(C)c1NC(=O)C1CCCCN1C (centres undefined) [mepivacaine hydrochloride] | 0.0889
COc1cc(C(=O)NCCCCCC(=O)O)cc(OC)c1OC [capobenic acid] | -0.0679
O=C(NCCCN1CCOCC1)c1ccc(Cl)cc1 [eprobemide] | -0.365
CCCCCC(C)N (centres undefined) [tuaminoheptane sulfate] | -0.15
Nc1ccc(S(=O)(=O)O)cc1 [sulfanilate zinc] | -1.44
O=C(Oc1ccccc1C(=O)O)c1ccccc1O [salsalate] | 0.622
Cc1ncc([N+](=O)[O-])n1CCO [metronidazole] | -0.556
CCOC(=O)[C@H](CCc1ccccc1)N[C@@H](C)C(=O)N1CCC[C@H]1C(=O)O [enalapril maleate] | 1.15
C[N+](C)(C)CCOC(N)=O [Carbachol] | 1.02
O=c1[nH]c(=O)n([C@H]2C[C@H](O)C(CO)O2)cc1I (some centres undefined) [idoxuridine] | 5.13
CC(=O)OC/C=C(C)/C=C/C=C(C)/C=C/C1=C(C)CCCC1(C)C [retinyl acetate] | 0.17
NC[C@H]1O[C@H](O[C@H]2[C@H](O[C@@H]3O[C@H](CO)[C@@H](O)[C@H]3O)[C@@H](O)[C@H](N)C[C@@H]2N)[C@H](N)[C@@H](O)[C@@H]1O [ribostamycin sulfate] | -0.317
C=CC[C@@H]1/C=C(\C)C[C@H](C)C[C@H](OC)[C@H]2O[C@@](O)(C(=O)C(=O)N3CCCC[C@H]3C(=O)O[C@H](/C(C)=C/[C@@H]3CC[C@@H](O)[C@H](OC)C3)[C@H](C)[C@@H](O)CC1=O)[C@H](C)C[C@@H]2OC [tacrolimus] | 1.12
NC[C@@H]1CC[C@@H](N)[C@@H](O[C@H]2[C@H](O)[C@@H](O[C@H]3O[C@H](CO)[C@@H](O)[C@H](N)[C@H]3O)[C@H](N)C[C@@H]2N)O1 [dibekacin] | 0.345
O=S(=O)(O)CCS [mesna] | -0.872
CC(C)NCC(O)COc1ccc(COCCOC(C)C)cc1 (centres undefined) [bisoprolol fumarate] | -0.725
CC(C)(Oc1ccc(C(=O)c2ccc(Cl)cc2)cc1)C(=O)O [fenofibric acid] | -0.342
Nc1nc(Cl)nc2c1ncn2[C@@H]1O[C@H](CO)[C@@H](O)[C@@H]1F [clofarabine] | 4.26
Nc1nc(N)nc(-c2cc(Cl)ccc2Cl)n1 [irsogladine maleate] | -0.179
CCOc1cc(NC(C)=O)ccc1C(=O)OC [ethopabate] | 0.327
OC[C@H]1O[C@@H](n2cnc3c(O)ncnc32)[C@H](O)[C@@H]1O [inosine] | -0.153
CS(=O)(=O)c1ccc([C@@H](O)[C@@H](CO)NC(=O)C(Cl)Cl)cc1 [thiamphenicol] | -0.143
Cn1cnc2c1c(=O)[nH]c(=O)n2C [Theobromine] | -0.546
O=C(O)CCCCC(=O)O [adipic acid] | -0.2
CC1CCc2c(N3CCC(O)CC3)c(F)cc3c(=O)c(C(=O)O)cn1c23 (centres undefined) [nadifloxacin] | -1.06

Compound | APOC3 transcript change (Z-score)
Cc1c(C)c2c(c(C)c1O)CCC(C)(CCCC(C)CCCC(C)CCCC(C)C)O2 (stereo not drawn) [alpha-tochopherol] | -0.499
COc1ccc(CN(CCN(C)C)c2ccccn2)cc1 [Pyrilamine maleate] | -0.505
CCCNC(C)C(=O)Nc1ccccc1C (centres undefined) [prilocaine hydrochloride] | -0.0247
CCn1cc(C(=O)O)c(=O)c2ccc(C)nc21 [nalidixic acid] | -0.0319
CNCCC=C1c2ccccc2CCc2ccccc21 [Nortriptyline hydrochloride] | 2.53
C=CCc1ccc(O)c(OC)c1 [eugenol] | -0.896
CCN1C(=O)NC(c2ccccc2)C1=O (centres undefined) [ethotoin] | 0.359
CN1C(C(=O)Nc2ccccn2)=C(O)c2sc(Cl)cc2S1(=O)=O [lornoxicam] | -0.205
CCCCCCCCCCCCCCCC[N+](C)(C)CCN(Cc1ccc(OC)cc1)c1ncccn1 [thonzonium bromide] | 0.604
C[C@]12CCC(=O)C=C1CC[C@@H]1[C@@H]2[C@@H](O)C[C@@]2(C)[C@H]1CC[C@]2(O)C(=O)COC(=O)CCC(=O)O [hydrocortisone hemisuccinate] | -0.147
CC(C)(C)NC[C@H](O)COc1nsnc1N1CCOCC1 [timolol maleate] | -0.498
Cc1c(OCC(F)(F)F)ccnc1C[S@@](=O)c1nc2ccccc2[nH]1 [dexlansoprazole] | 0.295
C=CCOC(Cn1ccnc1)c1ccc(Cl)cc1Cl (centres undefined) [enilconazole] | 0.0609
OC(c1cc(C(F)(F)F)nc2c(C(F)(F)F)cccc12)C1CCCCN1 (centres undefined) [mefloquine] | 0.826
CSCC[C@H](NC(=O)[C@H](Cc1c[nH]c2ccccc12)NC(=O)[C@H](C)NC(=O)OC(C)(C)C)C(=O)N[C@@H](CC(=O)O)C(=O)N[C@@H](Cc1ccccc1)C(N)=O [pentagastrin] | 0.962
CN1C(CC(=O)c2ccccc2)CCCC1CC(O)c1ccccc1 (centres undefined) [lobeline hydrochloride] | -0.478
CC(=O)N[C@@H](CCC(N)=O)C(=O)O [aceglutamide] | 2.66
CCOC(=O)OC(C)OC(=O)[C@@H]1N2C(=O)[C@@H](NC(=O)[C@H](N)c3ccccc3)[C@H]2SC1(C)C (some centres undefined) [bacampicillin hydrochloride] | -0.721
CC(C)[C@H](N)C(=O)OCCOCn1cnc2c(O)nc(N)nc21 [valacyclovir hydrochloride] | -0.0621
Nc1ncn([C@@H]2O[C@H](CO)[C@@H](O)[C@H]2O)c(=O)n1 [5-azacytidine] | -2.05
CCC(C)[C@H]1O[C@]2(CC[C@@H]1C)C[C@@H]1C[C@@H](C/C=C(\C)[C@@H](OC3C[C@H](OC)C(O[C@H]4C[C@H](OC)[C@@H](O)[C@H](C)O4)[C@H](C)O3)[C@@H](C)/C=C/C=C3\CO[C@@H]4[C@H](O)C(C)=C[C@@H](C(=O)O1)[C@]34O)O2 (some centres undefined) [ivermectin] | 1.32
O=C(Nc1ccc([N+](=O)[O-])cc1Cl)c1cc(Cl)ccc1O [nicolsamide] | -1.37
CCCc1cc(O)nc(S)n1 [propylthiouracil] | 0.828
CC1(C)O[C@@H]2C[C@H]3[C@@H]4CCC5=CC(=O)C=C[C@]5(C)[C@@]4(F)[C@@H](O)C[C@]3(C)[C@]2(C(=O)CO)O1 [triamcinolone acetonide] | 0.766
Cc1cc2nc3ccc(N(C)C)cc3[s+]c2cc1N [tolonium chloride] | -0.992
Cc1oncc1C(=O)Nc1ccc(C(F)(F)F)cc1 [lefunamide] | 0.896
Clc1ccc(CO/N=C(\Cn2ccnc2)c2ccc(Cl)cc2Cl)c(Cl)c1 [oxiconazole nitrate] | 0.429

Compound | APOC3 transcript change (Z-score)
NC(=O)c1cc[n+](CC2=C(C(=O)O)N3C(=O)[C@@H](NC(=O)Cc4cccs4)[C@H]3SC2)cc1 [cefalonium] | -0.483
CC(=O)OCC(=O)[C@@]1(O)CCC2C3CCC4=CC(=O)CC[C@]4(C)C3C(=O)C[C@@]21C (some centres undefined) [cortisone acetate] | 0.26
Cc1nnc(NS(=O)(=O)c2ccc(N)cc2)s1 [sulfamethizole] | -0.1
CO[C@@]12[C@H](COC(N)=O)C3=C(C(=O)C(C)=C(N)C3=O)N1C[C@@H]1N[C@@H]12 [mitomycin c] | -3.72
Nc1ccc(S(=O)(=O)NC(=O)c2ccccc2)cc1 [sulfabenzamide] | -0.00313
Cc1ccc(Cl)c(Nc2ccccc2C(=O)O)c1Cl [sodium meclofenamate] | 0.252
Oc1ccc(OCc2ccccc2)cc1 [monobenzone] | 0.463
C[C@H]1CC2C3CCC4=CC(=O)C=C[C@]4(C)[C@@]3(F)[C@@H](O)C[C@]2(C)[C@@]1(O)C(=O)COP(=O)(O)O (some centres undefined) [betamethasone sodium phosphate] | 1.07
CNCCCC1c2ccccc2C=Cc2ccccc21 [Protriptyline hydrochloride] | 1.12
CCCCCCNC(=O)n1cc(F)c(=O)[nH]c1=O [carmofur] | 0.228
Nc1nc(N)c2nc(-c3ccccc3)c(N)nc2n1 [Triamterene] | -0.451
O=C1C2CC3CC1CC(O)(C3)C2 [idramantone] | -0.111
Cc1cccc(N(C)C(=S)Oc2ccc3ccccc3c2)c1 [tolnaftate] | 0.6
CC(C)Cn1cnc2c(N)nc3ccccc3c21 [imiquimod] | -0.0883
O=C(CNC(=O)c1ccc(Cl)cc1)NO [benurestat] | 0.476
Nc1nc(O)ncc1F [flucytosine] | -0.0639
COc1ccccc1N1CCN(CC(O)COc2cccc3ccccc23)CC1 (centres undefined) [Naftopidil dihydrochloride] | 1.47
CC(=O)OC1CC2CCC1(C)C2(C)C (centres undefined) [bornyl acetate] | 0.212
N=C(N)c1ccc(OCCCCCOc2ccc(C(=N)N)cc2)cc1 [Pentamidine isethionate] | -1.35
CCC(=O)c1c(O)cc(O)cc1O [flopropione] | -1.05
FC(F)(Cl)C(F)(F)Cl [cryoflurane] | -0.624
CO/N=C(\C(=O)N[C@@H]1C(=O)N2C(C(=O)O)=C(COC(N)=O)CS[C@H]12)c1ccco1 [cefuroxime sodium] | 0.334
NC1CCN(c2c(F)cc3c(=O)c(C(=O)O)cn(C4CC4)c3c2Cl)C1 (centres undefined) [clinafoxacin hydrochloride] | 0.671
CCOC(=O)n1ccn(C)c1=S [carbimazole] | 0.301
CCCCCCCCCCCCCCCC(=O)O[C@@H]1[C@@H](O)[C@@H](O)[C@@H]([C@H](NC(=O)[C@@H]2C[C@@H](CCC)CN2C)[C@H](C)Cl)O[C@@H]1SC [clindamycin palmitate hydrochloride] | -0.214

Reformatted as a markdown table: 4 of the compounds above

| Compound | APOC3 transcript change (Z-score) |
| --- | --- |
| CCCCCCCCCCCCCCCC[N+](C)(C)CCN(Cc1ccc(OC)cc1)c1ncccn1 [thonzonium bromide] | 0.604 |
| C[C@]12CCC(=O)C=C1CC[C@@H]1[C@@H]2[C@@H](O)C[C@@]2(C)[C@H]1CC[C@]2(O)C(=O)COC(=O)CCC(=O)O [hydrocortisone hemisuccinate] | -0.147 |
| CC(C)(C)NC[C@H](O)COc1nsnc1N1CCOCC1 [timolol maleate] | -0.498 |
| Cc1c(OCC(F)(F)F)ccnc1C[S@@](=O)c1nc2ccccc2[nH]1 [dexlansoprazole] | 0.295 |
